Record: PubChem BioAssay AID1259405 (NCATS, 2018)
The deposit covers about 50,000 reagents; this is an unselected part. Of all reagents, about 4,000 (8%) are marked active. 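Mouse siRNA library applied to hamster cells; one well for each siRNA.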 Entries without a mark were called inactive. Reagents against one gene are numbered here.

- Assay: 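Knock-downs that lift recombinant protein yield in hamster ovary cells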 (primary screen)
- Cell system: Chinese hamster CHO-K1 ovary cells with stable secreted eGFP expression
- Knock-down reagent: single siRNA against mouse genes, 0.8 pmol siRNA per well (2 µl of 400 nM stock)
- Time to read-out: 3 days
- Detection: 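Per-well intracellular GFP measured by laser scanning cytometry, plus viability from ATP luminescence, each relative to plate median of non-targeting control wells, in %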
- Scale: GFP, % of control: higher = more GFP per well, higher productivity; viability (ATP), % of control: higher = more viable cells (more ATP)
- Hit rule: 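a knock-down is called active if GFP reaches 120% or more of non-targeting control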

How did the screen score Ebp (EBP cholestenol delta-isomerase) #1?
GFP, % of control: 93.7; viability (ATP), % of control: 103

What did the screen give for Ebp (EBP cholestenol delta-isomerase) #2?
GFP, % of control: 92.7; viability (ATP), % of control: 102

Which result is listed for Ebp (EBP cholestenol delta-isomerase) #3?
GFP, % of control: 43.8; viability (ATP), % of control: 61.5

For Bcl9 (B cell CLL/lymphoma 9) #1, what does the deposit list?
GFP, % of control: 101; viability (ATP), % of control: 70.3

Which result is listed for Bcl9 (B cell CLL/lymphoma 9) #2?
GFP, % of control: 92.8; viability (ATP), % of control: 104

With Bcl9 (B cell CLL/lymphoma 9) #3, what was measured?
GFP, % of control: 76; viability (ATP), % of control: 70.7

Targets listed so far whose gene name begins with B or b:
Bcl9 (B cell CLL/lymphoma 9) #1: GFP, % of control = 101; viability (ATP), % of control = 70.3
Bcl9 (B cell CLL/lymphoma 9) #2: GFP, % of control = 92.8; viability (ATP), % of control = 104
Bcl9 (B cell CLL/lymphoma 9) #3: GFP, % of control = 76; viability (ATP), % of control = 70.7

The results go on.
Which result is listed for Nt5c2 (5'-nucleotidase, cytosolic II) #1?
GFP, % of control: 90.2; viability (ATP), % of control: 92.1

For Nt5c2 (5'-nucleotidase, cytosolic II) #2, what does the deposit list?
GFP, % of control: 38.4; viability (ATP), % of control: 52.2

For Nt5c2 (5'-nucleotidase, cytosolic II) #3, how do the results read?
GFP, % of control: 81.9; viability (ATP), % of control: 101

With Denr (density-regulated protein) #1, what was measured?
GFP, % of control: 53.9; viability (ATP), % of control: 71.3

For Denr (density-regulated protein) #2, how do the results read?
GFP, % of control: 17.9; viability (ATP), % of control: 30.1

How did the screen score Denr (density-regulated protein) #3?
GFP, % of control: 76.3; viability (ATP), % of control: 72.4

For Actl6b (actin-like 6B) #1, how do the results read?
GFP, % of control: 130 (active); viability (ATP), % of control: 92.5

How did the screen score Actl6b (actin-like 6B) #2?
GFP, % of control: 75.8; viability (ATP), % of control: 84.9

With Prss16 (serine protease 16 (thymus)) #1, what was measured?
GFP, % of control: 78.8; viability (ATP), % of control: 89.1

Which result is listed for Prss16 (serine protease 16 (thymus)) #2?
GFP, % of control: 129 (active); viability (ATP), % of control: 87.7

Which result is listed for Prss16 (serine protease 16 (thymus)) #3?
GFP, % of control: 68.6; viability (ATP), % of control: 59.7
